Data as given in PubChem BioAssay AID1259254 (NCATS, 2017).

Assay: 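Finding genes that stop cells copying their DNA twice in one cycle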 (primary screen)
Cells: human HCT116 colorectal cancer cells
Knock-down reagent: single siRNA against human genes
Time to read-out: 3 days
Detection: 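Nuclei stained with Hoechst and imaged; cell-cycle phase assigned by DNA content; G2 share scaled per plate, non-targeting siRNA 0%, GMNN siRNA 100%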
Direction: G2 robust z-score: higher = more G2 cells, more excess DNA replication
Call rule: 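An siRNA counts as active if its G2 robust z-score lies at least 5 MADs above the screen median; here such calls match roughly 38% of GMNN control or more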
In all, the deposit lists about 59,000 reagents; below is a random part of them. Of all reagents, about 1,550 (2.6%) got an active call. 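G2 share is only a proxy for re-replication; each gene was hit by three separate siRNAs, and active genes were retested.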 The numbers tell different reagents against one gene apart. Not all columns of the deposit are shown. No sequences are given here. Not given: the amount of reagent.

CCNB1 #1 — G2 robust z-score: 5.99; Call: active
CCNB1 #2 — G2 robust z-score: 0.627; Call: inactive
CCNB1 #3 — G2 robust z-score: 3.66; Call: inactive
MYOF #1 — G2 robust z-score: -0.839; Call: inactive
MYOF #2 — G2 robust z-score: 0.0327; Call: inactive
MYOF #3 — G2 robust z-score: 1.15; Call: inactive
SLC26A11 #1 — G2 robust z-score: 5.09; Call: active
SLC26A11 #2 — G2 robust z-score: -0.619; Call: inactive
SLC26A11 #3 — G2 robust z-score: 0.154; Call: inactive
NXPH3 #1 — G2 robust z-score: 1.32; Call: inactive
NXPH3 #2 — G2 robust z-score: -0.541; Call: inactive
NXPH3 #3 — G2 robust z-score: 1.93; Call: inactive
SUN2 #1 — G2 robust z-score: 3.61; Call: inactive
SUN2 #2 — G2 robust z-score: 0.464; Call: inactive
SUN2 #3 — G2 robust z-score: 0.957; Call: inactive
IGSF21 #1 — G2 robust z-score: 0.899; Call: inactive
IGSF21 #2 — G2 robust z-score: 1.98; Call: inactive
IGSF21 #3 — G2 robust z-score: -0.68; Call: inactive
TAS2R8 #1 — G2 robust z-score: -0.644; Call: inactive
TAS2R8 #2 — G2 robust z-score: -0.713; Call: inactive
TAS2R8 #3 — G2 robust z-score: 1.51; Call: inactive
STOX1 #1 — G2 robust z-score: -0.474; Call: inactive
STOX1 #2 — G2 robust z-score: 0.306; Call: inactive
STOX1 #3 — G2 robust z-score: 0.658; Call: inactive

Entries listed above with an active call, once more:
CCNB1 #1 — G2 robust z-score: 5.99; Call: active
SLC26A11 #1 — G2 robust z-score: 5.09; Call: active
